From patent US20160252495A1 (UNIVERSITY OF BRITISH COLUMBIA, published 2016) come the findings set out here.

Experiment [1] deals with H3N2 labeled antigen (hemagglutinin subtype H3N2) (influenza virus H3N2). The experiment in a line: functional validation of recombinant mAbs, bead assay.
The target of experiment [2] is H1N1 labeled antigen (hemagglutinin subtype H1N1) (influenza virus H1N1). The description is as above.

No constants are given. Whether binding was seen depends on the method and setting. Binding can be weak; no strength is given.

B1: Hs-7 human monoclonal antibody (antibody, V domains shown)
VH: QVQLQESGPGLVKSSETLSLTCTVSGDSITSSTYDWGWIRQPPGKGLEWIGNVYYRGSTYYNPSLKSRVTISVDRSRTQISLRLSSVTAADTALYFCARHPKRLTVFEVVNAFDIWGQGQTMVTVFSASTKGPSVFPLAPSSKSTSGGTA
VL: QSALTQPASVSASPGQSITISCTGISSDIGGYSSVSWYQAHPGKAPKLMIYDVNNRPSGISNRFSGSKSGNTASLAISGLQAEDEADYYCSLYTSINASIVFGGGTKLTVLGQPKAAPSVTLFPPSS
Regarding B1, the binding result in experiment [1] and in experiment [2] was “binds” in each case.

B2: Hs-15 human monoclonal antibody (antibody, V domains shown)
VH: QLQLQESGPGLVKPSETLSLTCTVSGDSISSSTYYWGWIRQPPGKGLEWIAFIFYSGSTFYNPSLKSRVTVSVDRSTNQFSLRLKSVTAADTSRYYCARHPKRISIFEVVNAFDIWGQGTMVTVSS
VL: QSALTQPASVSGSPGQSITITCTGISSDVGAYNSVSWYQQYPGKSPKLMIYDVSNRSSGVSNRFSGSKSDNTASLTISGLQAEDEASYFCSLYRSSTTSVVFGGGTKLTVLR
B2: the binding entry in experiment [1] and in experiment [2] was “binds” throughout.
